The values below come from publication PMC10138577, “Prenylated Flavonoids with Selective Toxicity against Human Cancers” (International Journal of Molecular Sciences, 2023).

What all share (assay type): cell-based
The subject of data set [1] is MCF-7 human breast adenocarcinoma cells. Kind of data set: In vitro antiproliferative assay (SRB), MCF-7. An excerpt:
(§1) The following established in vitro cell lines were applied: human breast adenocarcinoma (MCF-7 and SK-BR-3), human breast ductal carcinoma (T47D), human prostate adenocarcinoma (PC-3), human prostate carcinoma (Du145), human colorectal adenocarcinoma (HT-29 and LoVo), doxorubicin-resistant human colorectal adenocarcinoma (LoVo/Dx), human myelomonocytic leukemia (MV-4-11), human lung adenocarcinoma (A549), normal murine embryonic fibroblasts (BALB/3T3) and human lung microvascular endothelial (HLMEC). All the cell lines were obtained from the American Type Culture Collection (Rockville, MD, USA) except for LoVo and LoVo/DX, which were received from the Technical University of Gdańsk, Poland, courtesy of Prof. E. Borowski. All the cell lines were maintained in the Institute of Immunology and Experimental Therapy, Wroclaw, Poland. […]
(§2) The details of this technique were described by Skehan et al.. […] The unbound dye was removed by washing the plates five times with 1% acetic acid, whereas the stain bound to the cells was extracted with 150 µL of 10 mM unbuffered Tris base for determination of the optical density at a 540 nm wavelength in a computer-interfaced, 96-well microtiter plate reader–Multiskan FC photometer (Thermo Scientific, Waltham, MA, USA). The background optical density was measured in the wells filled with culture medium, without the cells. […]

Data set [2] concerns LoVo/Dx doxorubicin-resistant human colorectal adenocarcinoma cells. Kind of data set: In vitro antiproliferative assay (SRB), LoVo/Dx.
Excerpt: as §1, §2

Data set [3] concerns MV-4-11 human myelomonocytic leukemia cells. In words: In vitro antiproliferative assay (MTT), MV-4-11. The text has this:
The following established in vitro cell lines were applied: human breast adenocarcinoma (MCF-7 and SK-BR-3), human breast ductal carcinoma (T47D), human prostate adenocarcinoma (PC-3), human prostate carcinoma (Du145), human colorectal adenocarcinoma (HT-29 and LoVo), doxorubicin-resistant human colorectal adenocarcinoma (LoVo/Dx), human myelomonocytic leukemia (MV-4-11), human lung adenocarcinoma (A549), normal murine embryonic fibroblasts (BALB/3T3) and human lung microvascular endothelial (HLMEC). All the cell lines were obtained from the American Type Culture Collection (Rockville, MD, USA) except for LoVo and LoVo/DX, which were received from the Technical University of Gdańsk, Poland, courtesy of Prof. E. Borowski. All the cell lines were maintained in the Institute of Immunology and Experimental Therapy, Wroclaw, Poland. The cells were cultured in the following media: DMEM medium (BALB/3T3), Eagle medium (MCF-7, SK-BR-3, Du145), RPMI medium (HLMEC, MV-4-11) or RPMI 1640 + Opti-MEM (1:1) medium (A549, T47D, LoVo, LoVo/Dx, PC-3, HT-29). The DMEM medium was supplemented with 2 mM L-glutamine and 10% fetal bovine serum. The Eagle medium was supplemented with 4 mM L-glutamine, 10% fetal bovine serum, 1 mM sodium pyruvate for Du145 cells or 2 mM L-glutamine, 1% amino acids and 0.8 mg L^−1 of insulin for MCF-7 and SK-BR-3. The RPMI medium was supplemented with 2 mM L-glutamine, 1 mM sodium pyruvate and 10% fetal bovine serum. The RPMI 1640 + Opti-MEM (1:1) medium was supplemented with 2 mM L-glutamine, 5% fetal bovine serum (PC-3, A549) and 0.8 mg L^−1 insulin (T47D) or 1 mM sodium pyruvate (HT-29, LoVo, LoVoDx) and 0.1 ug/mL doxorubicin (LoVo/Dx). […]
The details of this technique were described by Antoszczak et al.. The proliferation inhibition of human myelomonocytic leukemia (MV-4-11) by the tested compounds was measured using the MTT assay. […] The plates were incubated for 24 h for the formazan crystals to be released from the cells and dissolved, and then the absorbance of each well was read on a 96-well microtiter plate reader (Multiskan FC photometer (Thermo Scientific)) at a 570 nm wavelength.
Twenty-four hours before incubation with the tested compounds, the cells were seeded in 96-well plates (Sarstedt, Nümbrecht, Germany) at a density of 10^4 cells per well (10^3 cells per well for HLMEC) in 100 µL of culture medium. […] The results were calculated as the IC50 (μM) (half maximal inhibitory concentration), i.e., the concentration of the tested agent that inhibits the proliferation of the cancer cell population by half. The IC50 values and the mean values ± SD calculated for each experiment separately using GraphPad Prism software (GraphPad Software 9.1.0, San Diego, CA, USA) are presented in Table S1 in the Supplementary Materials.

Data set [4] has as its system SK-BR-3 human breast adenocarcinoma cells. Kind of data set: In vitro antiproliferative assay (SRB), SK-BR-3.
Excerpt: as §1, §2

Data set [5] concerns T47D human breast ductal carcinoma cells. In words: In vitro antiproliferative assay (SRB), T47D.
Excerpt: as §1, §2

The test system of data set [6] is LoVo human colorectal adenocarcinoma cells. In words: In vitro antiproliferative assay (SRB), LoVo.
Excerpt: as §1, §2

The subject of data set [7] is Du145 human prostate carcinoma cells. In words: In vitro antiproliferative assay (SRB), Du145.
Excerpt: as §1, §2

In data set [8] the test system is A549 human lung adenocarcinoma cells. Kind of data set: In vitro antiproliferative assay (SRB), A549.
Excerpt: as §1, §2

Data set [9] deals with HT-29 human colorectal adenocarcinoma cells. Kind of data set: In vitro antiproliferative assay (SRB), HT-29. The text has this: The following established in vitro cell lines were applied: human breast adenocarcinoma (MCF-7 and SK-BR-3), human breast ductal carcinoma (T47D), human prostate adenocarcinoma (PC-3), human prostate carcinoma (Du145), human colorectal adenocarcinoma (HT-29 and LoVo), doxorubicin-resistant human colorectal adenocarcinoma (LoVo/Dx), human myelomonocytic leukemia (MV-4-11), human lung adenocarcinoma (A549), normal murine embryonic fibroblasts (BALB/3T3) and human lung microvascular endothelial (HLMEC). All the cell lines were obtained from the American Type Culture Collection (Rockville, MD, USA) except for LoVo and LoVo/DX, which were received from the Technical University of Gdańsk, Poland, courtesy of Prof. E. Borowski. All the cell lines were maintained in the Institute of Immunology and Experimental Therapy, Wroclaw, Poland. The cells were cultured in the following media: DMEM medium (BALB/3T3), Eagle medium (MCF-7, SK-BR-3, Du145), RPMI medium (HLMEC, MV-4-11) or RPMI 1640 + Opti-MEM (1:1) medium (A549, T47D, LoVo, LoVo/Dx, PC-3, HT-29). The DMEM medium was supplemented with 2 mM L-glutamine and 10% fetal bovine serum. The Eagle medium was supplemented with 4 mM L-glutamine, 10% fetal bovine serum, 1 mM sodium pyruvate for Du145 cells or 2 mM L-glutamine, 1% amino acids and 0.8 mg L^−1 of insulin for MCF-7 and SK-BR-3. The RPMI medium was supplemented with 2 mM L-glutamine, 1 mM sodium pyruvate and 10% fetal bovine serum. The RPMI 1640 + Opti-MEM (1:1) medium was supplemented with 2 mM L-glutamine, 5% fetal bovine serum (PC-3, A549) and 0.8 mg L^−1 insulin (T47D) or 1 mM sodium pyruvate (HT-29, LoVo, LoVoDx) and 0.1 ug/mL doxorubicin (LoVo/Dx). The media contained antibiotics: 100 µg mL^−1 streptomycin and 100 U mL^−1 penicillin. All the cell lines were incubated at 37 °C in a humid atmosphere saturated with 5% CO2.
The details of this technique were described by Skehan et al.. […] The unbound dye was removed by washing the plates five times with 1% acetic acid, whereas the stain bound to the cells was extracted with 150 µL of 10 mM unbuffered Tris base for determination of the optical density at a 540 nm wavelength in a computer-interfaced, 96-well microtiter plate reader–Multiskan FC photometer (Thermo Scientific, Waltham, MA, USA). The background optical density was measured in the wells filled with culture medium, without the cells.
Twenty-four hours before incubation with the tested compounds, the cells were seeded in 96-well plates (Sarstedt, Nümbrecht, Germany) at a density of 10^4 cells per well (10^3 cells per well for HLMEC) in 100 µL of culture medium. […] The results were calculated as the IC50 (μM) (half maximal inhibitory concentration), i.e., the concentration of the tested agent that inhibits the proliferation of the cancer cell population by half. […]

The test system of data set [10] is PC-3 human prostate adenocarcinoma cells. In words: In vitro antiproliferative assay (SRB), PC-3.
Excerpt: as §1, §2

In the case of `N.N.[Cl][Pt][Cl]` [Cisplatin, cisplatin, reference compound], the “Calculated selectivity index SIB” value in data set [1] (IC50 BALB/3T3/IC50 MCF-7) was 0.79; in [2] (IC50 BALB/3T3/IC50 LoVo/Dx), 1.00; in [3] (IC50 BALB/3T3/IC50 MV-4-11) it was 8.07; in data set [4] (IC50 BALB/3T3/IC50 SK-BR-3), 0.42; in data set [5] (IC50 BALB/3T3/IC50 T47D), 0.69; in data set [6] (IC50 BALB/3T3/IC50 LoVo) it was 2.07. In addition, the “Calculated selectivity index SIB” value is given as 0.96 in data set [7] (IC50 BALB/3T3/IC50 Du145), 0.79 in data set [8] (IC50 BALB/3T3/IC50 A549), 0.47 in data set [9] (IC50 BALB/3T3/IC50 HT-29) and 0.59 in [10] (IC50 BALB/3T3/IC50 PC-3). In addition, the “Calculated selectivity index SIA” value in [1] (IC50 HLMEC/IC50 MCF-7) is reported as 0.11; in [2] (IC50 HLMEC/IC50 LoVo/Dx), 0.14; in [3] (IC50 HLMEC/IC50 MV-4-11) it was 1.14; in data set [4] (IC50 HLMEC/IC50 SK-BR-3), 0.06; in data set [5] (IC50 HLMEC/IC50 T47D), 0.10; in data set [6] (IC50 HLMEC/IC50 LoVo) it was 0.29. The “Calculated selectivity index SIA” value is 0.13 in [7] (IC50 HLMEC/IC50 Du145), 0.11 in [8] (IC50 HLMEC/IC50 A549), 0.07 in [9] (IC50 HLMEC/IC50 HT-29) and 0.08 in data set [10] (IC50 HLMEC/IC50 PC-3). Moreover, the “antiproliferative activity relative to aurone (2), more active” value in data set [3] (MV-4-11, cisplatin vs aurone (2)) stood at 6.7 fold; in [9] (HT-29, cisplatin vs aurone (2)), 3.3 fold. The “antiproliferative activity relative to xanthohumol (1), more active” value in [3] (MV-4-11, cisplatin vs xanthohumol (1)) was 7.3 fold; in data set [9] (HT-29, cisplatin vs xanthohumol (1)), 4.8 fold.
